Laboratory results from PMC13558869.
No constants are given. Whether binding was seen depends on the method and setting. In cells and extracts the contact can be indirect. These calls come from enrichment with a bait or labelling near it, and not all partners need be listed. For some assays here: No binding means not detected with the bait. For some assays here: Sequences can lack the tags named with a protein.

Chains of the proteins cited; added tags and fusions are not shown.
UniProt P31946: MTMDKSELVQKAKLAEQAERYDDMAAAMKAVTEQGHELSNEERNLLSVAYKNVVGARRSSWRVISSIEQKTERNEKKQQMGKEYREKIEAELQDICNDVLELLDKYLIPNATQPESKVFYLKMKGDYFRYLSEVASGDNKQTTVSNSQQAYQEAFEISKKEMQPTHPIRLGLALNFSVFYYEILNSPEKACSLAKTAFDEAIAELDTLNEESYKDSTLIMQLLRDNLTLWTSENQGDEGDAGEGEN
UniProt P63104: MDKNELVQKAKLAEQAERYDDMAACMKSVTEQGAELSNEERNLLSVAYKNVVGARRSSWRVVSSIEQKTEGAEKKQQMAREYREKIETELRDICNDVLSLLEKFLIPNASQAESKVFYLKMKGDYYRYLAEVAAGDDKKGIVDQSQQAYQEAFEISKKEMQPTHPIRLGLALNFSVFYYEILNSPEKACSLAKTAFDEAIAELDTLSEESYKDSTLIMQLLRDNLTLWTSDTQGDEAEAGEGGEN
UniProt O75175: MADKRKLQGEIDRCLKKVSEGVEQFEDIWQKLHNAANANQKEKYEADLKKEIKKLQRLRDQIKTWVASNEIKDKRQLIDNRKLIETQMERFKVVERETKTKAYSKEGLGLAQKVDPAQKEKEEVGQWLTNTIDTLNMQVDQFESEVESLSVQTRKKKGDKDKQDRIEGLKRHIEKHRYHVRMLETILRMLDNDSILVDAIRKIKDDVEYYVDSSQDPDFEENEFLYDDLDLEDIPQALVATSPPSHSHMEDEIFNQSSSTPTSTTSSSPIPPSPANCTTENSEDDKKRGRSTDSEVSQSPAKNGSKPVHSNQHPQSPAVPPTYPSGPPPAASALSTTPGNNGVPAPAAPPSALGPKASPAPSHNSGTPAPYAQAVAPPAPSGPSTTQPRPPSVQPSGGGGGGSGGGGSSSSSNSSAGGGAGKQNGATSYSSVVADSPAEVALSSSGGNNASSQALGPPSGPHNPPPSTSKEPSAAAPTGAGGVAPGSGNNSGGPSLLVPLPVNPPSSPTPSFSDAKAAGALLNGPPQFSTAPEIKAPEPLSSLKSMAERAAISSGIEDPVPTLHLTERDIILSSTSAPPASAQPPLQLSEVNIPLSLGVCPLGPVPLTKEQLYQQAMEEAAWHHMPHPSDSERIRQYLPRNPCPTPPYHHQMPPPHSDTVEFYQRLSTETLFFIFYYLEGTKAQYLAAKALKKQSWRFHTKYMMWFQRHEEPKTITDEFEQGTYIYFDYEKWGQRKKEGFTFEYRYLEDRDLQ
UniProt Q9BVL2: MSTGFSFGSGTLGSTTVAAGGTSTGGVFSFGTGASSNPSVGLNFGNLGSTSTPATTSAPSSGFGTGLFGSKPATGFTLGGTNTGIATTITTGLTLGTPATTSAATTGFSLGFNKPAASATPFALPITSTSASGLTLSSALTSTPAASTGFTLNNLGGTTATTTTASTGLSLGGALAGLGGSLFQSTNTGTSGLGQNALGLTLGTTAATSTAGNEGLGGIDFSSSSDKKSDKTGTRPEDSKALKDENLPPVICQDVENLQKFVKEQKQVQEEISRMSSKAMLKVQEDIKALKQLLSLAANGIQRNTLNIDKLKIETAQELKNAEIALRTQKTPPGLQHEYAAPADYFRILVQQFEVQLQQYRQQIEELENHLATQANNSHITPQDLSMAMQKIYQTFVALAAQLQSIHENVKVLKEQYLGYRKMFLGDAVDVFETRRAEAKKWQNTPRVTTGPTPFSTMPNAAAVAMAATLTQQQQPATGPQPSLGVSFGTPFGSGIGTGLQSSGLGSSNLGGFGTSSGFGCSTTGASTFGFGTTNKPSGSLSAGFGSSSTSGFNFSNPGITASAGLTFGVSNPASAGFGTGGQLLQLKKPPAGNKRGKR
UniProt P48634: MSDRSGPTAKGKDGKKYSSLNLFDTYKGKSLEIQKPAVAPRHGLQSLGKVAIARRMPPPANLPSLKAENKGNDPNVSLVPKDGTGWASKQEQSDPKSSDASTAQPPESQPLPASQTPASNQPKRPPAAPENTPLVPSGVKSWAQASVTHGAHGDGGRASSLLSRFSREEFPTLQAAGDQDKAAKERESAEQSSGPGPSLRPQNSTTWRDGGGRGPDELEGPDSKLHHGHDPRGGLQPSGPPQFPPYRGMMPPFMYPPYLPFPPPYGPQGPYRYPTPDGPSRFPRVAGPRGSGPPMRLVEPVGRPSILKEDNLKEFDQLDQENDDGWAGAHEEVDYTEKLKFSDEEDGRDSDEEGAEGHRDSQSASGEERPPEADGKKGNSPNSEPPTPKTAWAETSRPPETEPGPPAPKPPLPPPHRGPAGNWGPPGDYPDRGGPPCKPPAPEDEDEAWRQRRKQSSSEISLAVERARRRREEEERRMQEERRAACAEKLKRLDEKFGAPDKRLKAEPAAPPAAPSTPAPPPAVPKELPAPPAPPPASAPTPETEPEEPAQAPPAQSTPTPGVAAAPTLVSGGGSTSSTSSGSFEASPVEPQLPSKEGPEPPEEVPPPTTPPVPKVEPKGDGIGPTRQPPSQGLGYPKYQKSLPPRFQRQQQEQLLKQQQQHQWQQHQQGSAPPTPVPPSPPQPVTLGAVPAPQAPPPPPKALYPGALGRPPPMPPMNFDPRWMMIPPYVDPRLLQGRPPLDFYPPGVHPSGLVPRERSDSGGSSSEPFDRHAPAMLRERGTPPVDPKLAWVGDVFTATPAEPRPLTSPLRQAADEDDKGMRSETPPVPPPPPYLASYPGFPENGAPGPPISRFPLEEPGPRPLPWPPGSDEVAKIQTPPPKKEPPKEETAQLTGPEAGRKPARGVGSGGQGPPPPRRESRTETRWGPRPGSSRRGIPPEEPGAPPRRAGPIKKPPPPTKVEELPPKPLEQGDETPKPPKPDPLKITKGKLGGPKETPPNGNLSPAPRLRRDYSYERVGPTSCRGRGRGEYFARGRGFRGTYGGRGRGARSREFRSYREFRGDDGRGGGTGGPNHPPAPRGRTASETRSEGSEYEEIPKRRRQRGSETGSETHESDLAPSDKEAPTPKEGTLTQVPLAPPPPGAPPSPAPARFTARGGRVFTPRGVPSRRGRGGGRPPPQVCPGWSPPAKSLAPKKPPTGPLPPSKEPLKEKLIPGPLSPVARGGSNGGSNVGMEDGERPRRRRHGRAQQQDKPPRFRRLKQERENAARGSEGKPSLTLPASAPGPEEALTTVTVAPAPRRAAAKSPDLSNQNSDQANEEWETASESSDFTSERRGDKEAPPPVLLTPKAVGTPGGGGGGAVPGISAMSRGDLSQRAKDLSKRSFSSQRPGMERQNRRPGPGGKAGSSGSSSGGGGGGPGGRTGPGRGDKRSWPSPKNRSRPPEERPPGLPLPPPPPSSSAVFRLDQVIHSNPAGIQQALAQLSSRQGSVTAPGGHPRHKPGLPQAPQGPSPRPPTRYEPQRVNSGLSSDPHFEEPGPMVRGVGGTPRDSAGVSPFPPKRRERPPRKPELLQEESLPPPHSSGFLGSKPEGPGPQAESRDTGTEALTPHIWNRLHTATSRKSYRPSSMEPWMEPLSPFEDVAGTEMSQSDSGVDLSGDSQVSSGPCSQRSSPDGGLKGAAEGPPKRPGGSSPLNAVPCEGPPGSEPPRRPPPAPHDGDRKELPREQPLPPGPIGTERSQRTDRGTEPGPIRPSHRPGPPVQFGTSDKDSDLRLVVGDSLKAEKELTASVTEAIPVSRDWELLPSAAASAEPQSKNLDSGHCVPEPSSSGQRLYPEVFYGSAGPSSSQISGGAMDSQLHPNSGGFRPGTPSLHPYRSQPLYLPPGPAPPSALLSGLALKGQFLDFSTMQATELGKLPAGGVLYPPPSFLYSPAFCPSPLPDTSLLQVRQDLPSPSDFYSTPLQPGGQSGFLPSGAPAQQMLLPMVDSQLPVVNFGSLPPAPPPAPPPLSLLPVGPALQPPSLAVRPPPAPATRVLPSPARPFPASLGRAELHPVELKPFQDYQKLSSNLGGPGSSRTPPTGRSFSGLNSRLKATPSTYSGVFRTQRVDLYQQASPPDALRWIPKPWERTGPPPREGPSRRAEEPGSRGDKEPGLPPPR
UniProt P67809: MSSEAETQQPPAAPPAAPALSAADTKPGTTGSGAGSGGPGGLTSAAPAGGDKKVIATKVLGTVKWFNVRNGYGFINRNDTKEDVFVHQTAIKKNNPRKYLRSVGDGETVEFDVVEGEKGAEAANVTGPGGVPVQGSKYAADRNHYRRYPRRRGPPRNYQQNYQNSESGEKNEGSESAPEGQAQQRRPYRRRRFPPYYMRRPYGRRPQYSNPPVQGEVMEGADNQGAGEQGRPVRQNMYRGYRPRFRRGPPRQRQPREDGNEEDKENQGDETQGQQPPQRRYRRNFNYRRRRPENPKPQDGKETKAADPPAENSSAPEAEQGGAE
UniProt O60645: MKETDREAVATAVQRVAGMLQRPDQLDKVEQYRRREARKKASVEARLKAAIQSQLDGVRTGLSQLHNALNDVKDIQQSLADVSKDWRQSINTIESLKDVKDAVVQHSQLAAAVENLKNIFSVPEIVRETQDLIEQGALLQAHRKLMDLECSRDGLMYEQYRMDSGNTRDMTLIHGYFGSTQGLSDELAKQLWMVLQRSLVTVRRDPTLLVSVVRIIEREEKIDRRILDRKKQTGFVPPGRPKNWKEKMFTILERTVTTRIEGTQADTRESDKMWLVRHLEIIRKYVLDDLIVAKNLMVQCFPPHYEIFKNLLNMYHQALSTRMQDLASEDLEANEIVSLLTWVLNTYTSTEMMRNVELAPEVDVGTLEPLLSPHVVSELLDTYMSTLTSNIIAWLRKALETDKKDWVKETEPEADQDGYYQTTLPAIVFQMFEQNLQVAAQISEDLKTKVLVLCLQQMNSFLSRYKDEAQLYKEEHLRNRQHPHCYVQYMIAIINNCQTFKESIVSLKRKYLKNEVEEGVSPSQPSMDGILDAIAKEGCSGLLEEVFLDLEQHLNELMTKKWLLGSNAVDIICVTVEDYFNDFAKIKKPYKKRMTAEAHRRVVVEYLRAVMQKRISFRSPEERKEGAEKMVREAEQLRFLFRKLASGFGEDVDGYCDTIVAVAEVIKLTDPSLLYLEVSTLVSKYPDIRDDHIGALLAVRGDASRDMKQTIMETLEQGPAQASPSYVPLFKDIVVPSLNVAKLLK
UniProt Q9UIV1: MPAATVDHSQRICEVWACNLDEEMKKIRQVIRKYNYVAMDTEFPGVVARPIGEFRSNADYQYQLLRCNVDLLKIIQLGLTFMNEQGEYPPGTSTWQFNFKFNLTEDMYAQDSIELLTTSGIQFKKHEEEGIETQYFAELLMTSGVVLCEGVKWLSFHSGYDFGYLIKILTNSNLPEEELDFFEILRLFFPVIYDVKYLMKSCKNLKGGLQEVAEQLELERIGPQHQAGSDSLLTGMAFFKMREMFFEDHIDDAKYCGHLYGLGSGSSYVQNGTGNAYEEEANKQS
UniProt O75420: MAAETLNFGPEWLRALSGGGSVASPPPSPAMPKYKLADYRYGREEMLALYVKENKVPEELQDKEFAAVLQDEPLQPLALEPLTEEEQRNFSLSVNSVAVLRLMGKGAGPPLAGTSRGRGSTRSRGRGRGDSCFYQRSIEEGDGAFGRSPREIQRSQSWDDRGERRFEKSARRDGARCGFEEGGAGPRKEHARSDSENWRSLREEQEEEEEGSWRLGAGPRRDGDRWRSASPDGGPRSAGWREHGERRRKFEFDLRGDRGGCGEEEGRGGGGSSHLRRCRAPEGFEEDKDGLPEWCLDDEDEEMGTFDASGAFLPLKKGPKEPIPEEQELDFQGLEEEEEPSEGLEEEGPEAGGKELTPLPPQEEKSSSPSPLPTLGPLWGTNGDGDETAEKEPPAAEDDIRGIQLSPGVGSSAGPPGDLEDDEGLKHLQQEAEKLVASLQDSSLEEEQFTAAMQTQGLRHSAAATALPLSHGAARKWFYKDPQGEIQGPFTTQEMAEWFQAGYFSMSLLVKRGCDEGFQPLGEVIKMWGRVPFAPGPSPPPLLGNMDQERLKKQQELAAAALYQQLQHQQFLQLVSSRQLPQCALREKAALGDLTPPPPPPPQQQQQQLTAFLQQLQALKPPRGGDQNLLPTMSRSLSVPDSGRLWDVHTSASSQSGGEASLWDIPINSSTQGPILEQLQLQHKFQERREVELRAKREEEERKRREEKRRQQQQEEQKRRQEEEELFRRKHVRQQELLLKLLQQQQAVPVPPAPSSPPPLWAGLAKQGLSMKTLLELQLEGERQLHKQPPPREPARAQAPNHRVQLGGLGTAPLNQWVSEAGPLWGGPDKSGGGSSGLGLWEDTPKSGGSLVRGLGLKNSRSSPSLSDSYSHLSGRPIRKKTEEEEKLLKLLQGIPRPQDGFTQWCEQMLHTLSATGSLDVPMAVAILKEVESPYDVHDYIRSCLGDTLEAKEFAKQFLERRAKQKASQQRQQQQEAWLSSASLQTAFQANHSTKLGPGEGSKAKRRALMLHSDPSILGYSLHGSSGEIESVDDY

B1: PAN2 (protein, UniProt Q504Q3 1-1202)
chain: MNFEGLDPGLAEYAPAMHSALDPVLDAHLNPSLLQNVELDPEGVALEALPVQESVHIMEGVYSELHSVVAEVGVPVSVSHFDLHEEMLWVGSHGGHATSFFGPALERYSSFQVNGSDDIRQIQSLENGILFLTKNNLKYMARGGLIIFDYLLDENEDMHSLLLTDSSTLLVGGLQNHIIEIDLNTVQETQKYAVETPGVTIMRQTNRFFFCGHTSGKVSLRDLRTFKVEHEFDAFSGSLSDFDVHGNLLAACGFSSRLTGLACDRFLKVYDLRMMRAITPLQVHVDPAFLRFIPTYTSRLAIISQSGQCQFCEPTGLANPADIFHVNPVGPLLMTFDVSASKQALAFGDSEGCVHLWTDSPEPSFNPYSRETEFALPCLVDSLPPLDWSQDLLPLSLIPVPLTTDTLLSDWPAANSAPAPRRAPPVDAEILRTMKKVGFIGYAPNPRTRLRNQIPYRLKESDSEFDSFSQVTESPVGREEEPHLHMVSKKYRKVTIKYSKLGLEDFDFKHYNKTLFAGLEPHIPNAYCNCMIQVLYFLEPVRCLIQNHLCQKEFCLACELGFLFHMLDLSRGDPCQGNNFLRAFRTIPEASALGLILADSDEASGKGNLARLIQRWNRFILTQLHQDMQELEIPQAYRGAGGSSFCSSGDSVIGQLFSCEMENCSLCRCGSETVRASSTLLFTLSYPDGSKSDKTGKNYDFAQVLKRSICLDQNTQAWCDTCEKYQPTIQTRNIRHLPDILVINCEVNSSKEADFWRMQAEVAFKMAVKKHGGEISKNKEFALADWKELGSPEGVLVCPSIEELKNVWLPFSIRMKMTKNKGLDVCNWTDGDEMQWGPARAEEEHGVYVYDLMATVVHILDSRTGGSLVAHIKVGETYHQRKEGVTHQQWYLFNDFLIEPIDKHEAVQFDMNWKVPAILYYVKRNLNSRYNLNIKNPIEASVLLAEASLARKQRKTHTTFIPLMLNEMPQIGDLVGLDAEFVTLNEEEAELRSDGTKSTIKPSQMSVARITCVRGQGPNEGIPFIDDYISTQEQVVDYLTQYSGIKPGDLDAKISSKHLTTLKSTYLKLRFLIDIGVKFVGHGLQKDFRVINLMVPKDQVLDTVYLFHMPRKRMISLRFLAWYFLDLKIQGETHDSIEDARTALQLYRKYLELSKNGTEPESFHKVLKGLYEKGRKMDWKVPEPEGQTSPKNAAVFSSVLAL
B2: PARN (protein, UniProt O95453 1-639)
chain: MEIIRSNFKSNLHKVYQAIEEADFFAIDGEFSGISDGPSVSALTNGFDTPEERYQKLKKHSMDFLLFQFGLCTFKYDYTDSKYITKSFNFYVFPKPFNRSSPDVKFVCQSSSIDFLASQGFDFNKVFRNGIPYLNQEEERQLREQYDEKRSQANGAGALSYVSPNTSKCPVTIPEDQKKFIDQVVEKIEDLLQSEENKNLDLEPCTGFQRKLIYQTLSWKYPKGIHVETLETEKKERYIVISKVDEEERKRREQQKHAKEQEELNDAVGFSRVIHAIANSGKLVIGHNMLLDVMHTVHQFYCPLPADLSEFKEMTTCVFPRLLDTKLMASTQPFKDIINNTSLAELEKRLKETPFNPPKVESAEGFPSYDTASEQLHEAGYDAYITGLCFISMANYLGSFLSPPKIHVSARSKLIEPFFNKLFLMRVMDIPYLNLEGPDLQPKRDHVLHVTFPKEWKTSDLYQLFSAFGNIQISWIDDTSAFVSLSQPEQVKIAVNTSKYAESYRIQTYAEYMGRKQEEKQIKRKWTEDSWKEADSKRLNPQCIPYTLQNHYYRNNSFTAPSTVGKRNLSPSQEEAGLEDGVSGEISDTELEQTDSCAEPLSEGRKKAKKLKRMKKELSPAGSISKNSPATLFEVPDTW
B3: SIRT2 (protein, UniProt Q8IXJ6 1-389)
chain: MAEPDPSHPLETQAGKVQEAQDSDSDSEGGAAGGEADMDFLRNLFSQTLSLGSQKERLLDELTLEGVARYMQSERCRRVICLVGAGISTSAGIPDFRSPSTGLYDNLEKYHLPYPEAIFEISYFKKHPEPFFALAKELYPGQFKPTICHYFMRLLKDKGLLLRCYTQNIDTLERIAGLEQEDLVEAHGTFYTSHCVSASCRHEYPLSWMKEKIFSEVTPKCEDCQSLVKPDIVFFGESLPARFFSCMQSDFLKVDLLLVMGTSLQVQPFASLISKAPLSTPRLLINKEKAGQSDPFLGMIMGLGGGMDFDSKKAYRDVAWLGECDQGCLALAELLGWKKELEDLVRREHASIDAQSGAGVPNPSTSASPKKSPPPAKDEARTTEREKPQ
B4: NFKBIE (protein, UniProt O00221 1-500)
chain: MNQRRSESRPGNHRLQAYAEPGKGDSGGAGPLSGSARRGRGGGGAIRVRRPCWSGGAGRGGGPAWAVRLPTVTAGWTWPALRTLSSLRAGPSEPHSPGRRPPRAGRPLCQADPQPGKAARRSLEPDPAQTGPRPARAAGMSEARKGPDEAEESQYDSGIESLRSLRSLPESTSAPASGPSDGSPQPCTHPPGPVKEPQEKEDADGERADSTYGSSSLTYTLSLLGGPEAEDPAPRLPLPHVGALSPQQLEALTYISEDGDTLVHLAVIHEAPAVLLCCLALLPQEVLDIQNNLYQTALHLAVHLDQPGAVRALVLKGASRALQDRHGDTALHVACQRQHLACARCLLEGRPEPGRGTSHSLDLQLQNWQGLACLHIATLQKNQPLMELLLRNGADIDVQEGTSGKTALHLAVETQERGLVQFLLQAGAQVDARMLNGCTPLHLAAGRGLMGISSTLCKAGADSLLRNVEDETPQDLTEESLVLLPFDDLKISGKLLLCTD

Tests used:
[1] = molecular target: T1, UltraID_ZFP36L1 (UltraID fused to the N-terminus of ZFP36L1, co-expressed with GFP through P2A) (UniProt Q07352); assay: proximity labelling; UltraID_L1 in retrovirally transduced primary human T cells, rested or re-activated 16 h with αCD3/αCD28, with or without 500 μM biotin; biotinylated proteins captured from lysate on streptavidin beads and identified by MS; controls UltraID_GFP and no biotin; T cell screens 1 and 2 (the network of Fig 3A also draws on the Jurkat screen)
T1 sequence: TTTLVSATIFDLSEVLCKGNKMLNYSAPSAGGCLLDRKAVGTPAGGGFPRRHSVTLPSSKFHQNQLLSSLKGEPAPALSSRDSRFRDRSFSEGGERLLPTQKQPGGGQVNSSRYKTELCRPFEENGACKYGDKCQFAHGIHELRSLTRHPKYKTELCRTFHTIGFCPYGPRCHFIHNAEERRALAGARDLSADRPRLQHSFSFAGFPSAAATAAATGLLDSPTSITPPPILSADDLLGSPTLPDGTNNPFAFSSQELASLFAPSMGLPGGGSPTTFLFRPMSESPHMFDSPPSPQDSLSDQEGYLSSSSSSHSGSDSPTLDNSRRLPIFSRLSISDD

[2] = molecular target: T1, UltraID_ZFP36L1 (UltraID fused to the N-terminus of ZFP36L1, co-expressed with GFP through P2A); assay: proximity labelling; time course: UltraID_L1 T cells re-activated with αCD3/αCD28 for 0, 2, 5, 16 h; biotin added for 2 h, for 3 h (2-5 h) or for 9 h (5-16 h); streptavidin capture, MS; supervised classification into shapes
[3] = molecular target: T2, ZFP36L1 (human (endogenous in primary T cells)) (UniProt Q07352); assay: affinity purification with mass spectrometry; Co-IP of endogenous ZFP36L1 with 10 μg anti-ZFP36L1 (1A3) or IgG control on Protein A Dynabeads, 4 h at 4°C, from cytoplasmic (1% digitonin) lysates of αCD3/αCD28-activated human CD3+ T cells at 0, 2, 5, 16 h; lysates untreated or treated with 200 U/ml RNAse A throughout; MS
T2 sequence: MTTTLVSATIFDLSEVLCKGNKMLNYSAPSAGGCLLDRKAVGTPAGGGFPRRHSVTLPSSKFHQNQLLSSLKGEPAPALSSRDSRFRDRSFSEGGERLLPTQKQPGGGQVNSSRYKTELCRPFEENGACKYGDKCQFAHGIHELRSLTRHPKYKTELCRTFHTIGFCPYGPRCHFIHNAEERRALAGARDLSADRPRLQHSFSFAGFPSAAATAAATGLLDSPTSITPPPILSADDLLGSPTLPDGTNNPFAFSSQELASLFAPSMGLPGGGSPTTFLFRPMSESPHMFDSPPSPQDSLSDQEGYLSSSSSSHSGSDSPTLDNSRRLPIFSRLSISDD

[4] = molecular target: T1, UltraID_ZFP36L1 (UltraID fused to the N-terminus of ZFP36L1, co-expressed with GFP through P2A); assay: proximity labelling; UltraID_L1 in retrovirally transduced primary human T cells, rested or re-activated 16 h with αCD3/αCD28, with or without 500 μM biotin; biotinylated proteins captured from lysate on streptavidin beads and identified by MS; controls UltraID_GFP and no biotin; T cell screens 1 and 2 (the network of Fig 3A also draws on the Jurkat screen); remark: listed apart in the source

| Molecule | binding [1] | binding [2] | binding [3] | binding [4] |
| --- | --- | --- | --- | --- |
| YWHAB (from UniProt P31946 1-246) | binds | – | – | – |
| TNRC6A (from UniProt Q8NDV7 1-1962) | – | binds | – | – |
| TNRC6C (from UniProt Q9HCJ0 1-1936) | binds | binds | – | – |
| FXR2 (from UniProt P51116 1-673) | binds | – | binds | – |
| YWHAZ (from UniProt P63104 1-245) | binds | – | – | – |
| AGO2 (from UniProt Q9UKV8 1-859) | binds | – | binds | – |
| CNOT3 (from UniProt O75175 1-753) | binds | – | – | – |
| G3BP1 (from UniProt Q13283 1-466) | binds | – | – | – |
| TNRC6B (from UniProt Q9UPQ9 1-1833) | – | binds | binds | – |
| SQSTM1 (from UniProt Q13501 1-440) | binds | – | binds | – |
| CNOT2 (from UniProt Q9NZN8 1-540) | binds | – | – | – |
| EXOC4 (from UniProt Q96A65 1-974) | binds | – | – | – |
| EXOC1 (from UniProt Q9NV70 1-894) | binds | – | – | – |
| 4EHP (from UniProt O60573 1-245) | binds | – | – | – |
| NUPL1 (from UniProt Q9BVL2 1-599) | binds | – | – | – |
| UBAP2L (from UniProt Q14157 1-1087) | binds | binds | – | – |
| PRRC2A (from UniProt P48634 1-2157) | binds | – | binds | – |
| YBX1 (from UniProt P67809 1-324) | binds | binds | binds | – |
| EXOC3 (from UniProt O60645 1-745) | binds | – | – | – |
| DCP2 (from UniProt Q8IU60 1-420) | binds | – | – | – |
| PUM1 (from UniProt Q14671 1-1186) | binds | binds | – | – |
| CNOT7 (from UniProt Q9UIV1 1-285) | binds | – | – | – |
| GIGYF1 (from UniProt O75420 1-1035) | binds | binds | no binding | – |
| FXR1 (from UniProt P51114 1-621) | binds | – | binds | – |
| B1 | – | – | – | binds |
| B2 | – | – | – | binds |
| B3 | – | – | – | binds |
| B4 | – | – | binds | – |
